Literature values, collected in US20200171118A1.
At least one compound was matched to its structure with a doubt left.

Settings: cited from earlier work

In the case of `[O-][Cl+3]([O-])([O-])[O-].[O-][Cl+3]([O-])([O-])[O-].[Sr+2]` [strontium perchlorate], the “catalyst reaction rate constant (kcat), comparison values” is listed as 0.10 M^−2s^−1.
